# Test results reported in the supplement of paper PMC10849652.
# Chains of the proteins cited; added tags and fusions are not shown. Lines headed by an entry give the natural chain unless they say otherwise; changes in a name come on top.
# UniProt Q96B23: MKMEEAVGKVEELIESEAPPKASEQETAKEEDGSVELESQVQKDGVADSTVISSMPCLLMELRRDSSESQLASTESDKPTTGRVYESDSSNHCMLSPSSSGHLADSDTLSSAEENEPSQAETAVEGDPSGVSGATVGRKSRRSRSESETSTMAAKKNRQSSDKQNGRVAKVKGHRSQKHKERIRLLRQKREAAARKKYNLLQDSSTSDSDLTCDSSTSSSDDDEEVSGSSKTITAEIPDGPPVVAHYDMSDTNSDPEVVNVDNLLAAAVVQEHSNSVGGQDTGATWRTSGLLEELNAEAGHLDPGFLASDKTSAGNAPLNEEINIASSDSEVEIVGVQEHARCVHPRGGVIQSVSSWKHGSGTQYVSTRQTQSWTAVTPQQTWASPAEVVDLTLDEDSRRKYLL
# UniProt Q8N999, whole entry, looked up: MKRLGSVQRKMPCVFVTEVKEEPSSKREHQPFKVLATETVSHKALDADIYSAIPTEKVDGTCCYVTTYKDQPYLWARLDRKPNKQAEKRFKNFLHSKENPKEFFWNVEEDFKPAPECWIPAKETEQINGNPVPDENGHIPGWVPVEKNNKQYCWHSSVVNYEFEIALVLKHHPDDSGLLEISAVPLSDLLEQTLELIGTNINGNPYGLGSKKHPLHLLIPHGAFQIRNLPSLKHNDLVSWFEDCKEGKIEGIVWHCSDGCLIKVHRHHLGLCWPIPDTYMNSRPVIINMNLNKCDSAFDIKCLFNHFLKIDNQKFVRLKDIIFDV
# UniProt Q3KRA6: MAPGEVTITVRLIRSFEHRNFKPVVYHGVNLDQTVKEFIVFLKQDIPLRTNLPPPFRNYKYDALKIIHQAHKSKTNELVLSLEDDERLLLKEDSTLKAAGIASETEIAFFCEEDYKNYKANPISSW
# UniProt Q9H8G2: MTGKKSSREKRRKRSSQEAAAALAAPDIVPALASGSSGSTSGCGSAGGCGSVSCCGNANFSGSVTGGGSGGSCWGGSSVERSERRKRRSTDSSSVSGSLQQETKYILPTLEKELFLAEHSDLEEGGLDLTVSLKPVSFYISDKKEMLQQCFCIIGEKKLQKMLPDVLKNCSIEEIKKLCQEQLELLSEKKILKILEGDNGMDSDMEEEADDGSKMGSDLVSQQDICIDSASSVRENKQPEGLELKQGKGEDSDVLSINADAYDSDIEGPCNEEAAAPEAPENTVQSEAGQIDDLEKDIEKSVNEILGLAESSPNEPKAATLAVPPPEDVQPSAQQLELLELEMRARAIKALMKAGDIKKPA
# UniProt P17655: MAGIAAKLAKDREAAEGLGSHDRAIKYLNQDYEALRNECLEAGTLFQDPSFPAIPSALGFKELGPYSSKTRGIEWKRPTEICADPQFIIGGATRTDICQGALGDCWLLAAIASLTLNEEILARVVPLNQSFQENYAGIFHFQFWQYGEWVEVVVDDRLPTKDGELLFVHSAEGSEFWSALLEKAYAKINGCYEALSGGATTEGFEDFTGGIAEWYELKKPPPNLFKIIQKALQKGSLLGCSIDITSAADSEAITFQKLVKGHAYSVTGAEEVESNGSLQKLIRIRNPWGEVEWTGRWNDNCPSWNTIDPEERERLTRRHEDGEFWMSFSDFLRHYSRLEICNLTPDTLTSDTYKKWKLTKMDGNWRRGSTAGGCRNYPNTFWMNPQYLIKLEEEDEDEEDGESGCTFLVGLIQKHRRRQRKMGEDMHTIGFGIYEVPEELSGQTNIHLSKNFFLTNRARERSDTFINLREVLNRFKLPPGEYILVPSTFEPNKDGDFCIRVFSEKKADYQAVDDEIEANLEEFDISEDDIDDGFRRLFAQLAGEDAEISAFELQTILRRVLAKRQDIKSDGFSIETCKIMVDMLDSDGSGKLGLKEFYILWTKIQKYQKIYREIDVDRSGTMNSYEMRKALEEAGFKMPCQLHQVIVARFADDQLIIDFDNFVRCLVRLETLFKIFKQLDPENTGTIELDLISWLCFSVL
# UniProt Q9H3H3: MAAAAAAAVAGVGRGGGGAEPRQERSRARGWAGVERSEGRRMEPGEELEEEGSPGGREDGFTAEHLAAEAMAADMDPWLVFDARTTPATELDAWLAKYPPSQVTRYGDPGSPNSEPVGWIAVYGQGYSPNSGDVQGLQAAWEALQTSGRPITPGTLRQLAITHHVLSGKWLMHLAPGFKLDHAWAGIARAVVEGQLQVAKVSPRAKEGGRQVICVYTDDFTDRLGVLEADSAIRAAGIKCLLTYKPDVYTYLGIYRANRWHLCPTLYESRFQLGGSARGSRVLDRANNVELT
# UniProt P43251: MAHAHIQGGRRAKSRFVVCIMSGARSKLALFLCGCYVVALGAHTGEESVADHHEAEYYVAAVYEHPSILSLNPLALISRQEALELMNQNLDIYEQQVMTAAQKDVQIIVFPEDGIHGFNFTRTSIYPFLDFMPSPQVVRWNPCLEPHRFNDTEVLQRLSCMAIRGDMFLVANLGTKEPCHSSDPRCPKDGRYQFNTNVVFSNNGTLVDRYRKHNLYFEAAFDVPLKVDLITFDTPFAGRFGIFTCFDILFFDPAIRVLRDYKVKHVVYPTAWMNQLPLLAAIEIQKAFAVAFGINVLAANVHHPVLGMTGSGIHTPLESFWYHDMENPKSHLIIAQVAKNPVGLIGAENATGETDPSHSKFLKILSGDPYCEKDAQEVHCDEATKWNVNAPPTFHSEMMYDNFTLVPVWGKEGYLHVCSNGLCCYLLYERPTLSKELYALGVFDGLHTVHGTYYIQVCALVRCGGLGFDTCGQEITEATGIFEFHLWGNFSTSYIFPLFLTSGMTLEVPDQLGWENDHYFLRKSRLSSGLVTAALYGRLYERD
# UniProt Q9NZ63: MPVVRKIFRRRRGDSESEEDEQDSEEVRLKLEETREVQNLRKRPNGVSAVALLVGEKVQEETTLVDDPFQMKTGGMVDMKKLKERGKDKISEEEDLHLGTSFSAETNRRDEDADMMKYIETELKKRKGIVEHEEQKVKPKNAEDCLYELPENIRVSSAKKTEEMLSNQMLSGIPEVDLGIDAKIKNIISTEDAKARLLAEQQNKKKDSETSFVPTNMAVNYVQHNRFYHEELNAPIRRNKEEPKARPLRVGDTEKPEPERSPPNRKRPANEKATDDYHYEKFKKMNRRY
# Some of the results follow.
# Compound: c1cn2cc(-c3ccc4cn[nH]c4c3)nc(Nc3ccc(N4CCOCC4)cc3)c2n1 [entospletinib]
# Experiment: log2 fold change, soluble protein after heating vs DMSO (PISA); higher = thermal stabilisation; K562 cells, 10 uM, 30 min; active = over 0.2 and 3.5 SD of the protein, either way, in both replicates (recomputed)
# In short: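 Values are thermal stability changes relative to control samples and are taken from duplicates. They are stated as log2 fold changes. Before quantification by TMTpro 16plex LC-MS/MS with equalised channel sums, K562 cells at 2×10^6 cells/mL were treated with 10 μM compound for 30 min, heated in aliquots for 3 min across 48°C-58°C, pooled, extracted in PBS with 0.5% NP-40 at 4°C, and centrifuged at 21,000xg for 90 min to give the soluble supernatant.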
row,Target,log2 fold change
1,C18orf25 isoform 2 (UniProt Q96B23),inactive: 0.026
2,C12orf29 (UniProt Q8N999),inactive: -0.015
3,C2orf76 (UniProt Q3KRA6),inactive: -0.009
4,CAAP1 (UniProt Q9H8G2),inactive: 0.093
5,CAPN2 (UniProt P17655),inactive: 0.016
6,C11orf68 (UniProt Q9H3H3),inactive: -0.036
7,BTD isoform 3 (UniProt P43251),inactive: 0.187
8,C9orf78 (UniProt Q9NZ63),inactive: 0.005
9,CAPZA1 (UniProt P52907),inactive: 0.036
